Assay results: PMC9633600
Results are given in words; binding and its absence hold for the method and conditions named. In cells and extracts the contact can be indirect. These calls come from enrichment with a bait or labelling near it, and not all partners need be listed. For part of these data: Tags and fused reporters may be left off the sequences shown.

Chains of the proteins cited; added tags and fusions are not shown. Lines headed by an entry give the natural chain unless they say otherwise; changes in a name come on top. A line that says so, or that is headed by a name, gives the form on record, which may keep a tag or linker.
FGFR2b-HA-APEX2 (P21802, form named): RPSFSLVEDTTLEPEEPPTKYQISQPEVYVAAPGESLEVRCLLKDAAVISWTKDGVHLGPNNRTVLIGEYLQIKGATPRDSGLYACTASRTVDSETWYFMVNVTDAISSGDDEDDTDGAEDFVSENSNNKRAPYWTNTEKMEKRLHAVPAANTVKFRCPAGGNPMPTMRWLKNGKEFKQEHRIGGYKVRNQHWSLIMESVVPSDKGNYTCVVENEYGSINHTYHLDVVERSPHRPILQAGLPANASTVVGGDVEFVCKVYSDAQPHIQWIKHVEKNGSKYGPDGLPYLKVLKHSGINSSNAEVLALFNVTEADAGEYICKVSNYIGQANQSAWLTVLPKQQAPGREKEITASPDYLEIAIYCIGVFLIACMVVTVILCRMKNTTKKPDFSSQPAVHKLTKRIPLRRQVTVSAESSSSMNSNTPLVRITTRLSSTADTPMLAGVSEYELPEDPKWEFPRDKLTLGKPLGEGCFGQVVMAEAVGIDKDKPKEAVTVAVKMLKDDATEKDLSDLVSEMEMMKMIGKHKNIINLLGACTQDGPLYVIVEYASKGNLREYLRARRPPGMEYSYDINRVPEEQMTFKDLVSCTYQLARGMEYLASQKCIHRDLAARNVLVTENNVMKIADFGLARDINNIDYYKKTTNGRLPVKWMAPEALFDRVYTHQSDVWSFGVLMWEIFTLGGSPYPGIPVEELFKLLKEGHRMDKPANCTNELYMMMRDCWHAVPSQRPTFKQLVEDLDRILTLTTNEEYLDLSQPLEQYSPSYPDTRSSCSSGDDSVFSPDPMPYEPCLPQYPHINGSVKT

Tests used:
Experiment in all cases: proximity labelling; APEX2 fused to the bait in living cells; biotin-phenol 40 min, H2O2 1 min, quenched with Trolox and sodium ascorbate; streptavidin beads pull-down 2 h RT; bound proteins immunoblotted against supernatant and total lysate; cells untreated or FGF10 100 ng/mL for 1, 8 or 40 min
[1] = biological target: FGFR2b-HA-APEX2 (UniProt P21802)
[2] = biological target: T1, eGFP-RAB11-APEX2, P62491; conditions: remark: other sources report otherwise
T1 chain: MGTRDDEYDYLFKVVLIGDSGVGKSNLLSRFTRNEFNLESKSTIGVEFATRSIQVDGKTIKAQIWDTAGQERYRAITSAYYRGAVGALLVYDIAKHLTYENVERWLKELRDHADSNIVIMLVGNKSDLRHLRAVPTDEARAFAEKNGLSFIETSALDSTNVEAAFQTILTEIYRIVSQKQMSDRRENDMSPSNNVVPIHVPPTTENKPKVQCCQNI

[3] = biological target: eGFP-RAB11-APEX2 (UniProt P62491)

B1: phosphorylated PLCγ (enzyme, UniProt P19174 1-1290)
chain: MAGAASPCANGCGPGAPSDAEVLHLCRSLEVGTVMTLFYSKKSQRPERKTFQVKLETRQITWSRGADKIEGAIDIREIKEIRPGKTSRDFDRYQEDPAFRPDQSHCFVILYGMEFRLKTLSLQATSEDEVNMWIKGLTWLMEDTLQAPTPLQIERWLRKQFYSVDRNREDRISAKDLKNMLSQVNYRVPNMRFLRERLTDLEQRSGDITYGQFAQLYRSLMYSAQKTMDLPFLEASTLRAGERPELCRVSLPEFQQFLLDYQGELWAVDRLQVQEFMLSFLRDPLREIEEPYFFLDEFVTFLFSKENSVWNSQLDAVCPDTMNNPLSHYWISSSHNTYLTGDQFSSESSLEAYARCLRMGCRCIELDCWDGPDGMPVIYHGHTLTTKIKFSDVLHTIKEHAFVASEYPVILSIEDHCSIAQQRNMAQYFKKVLGDTLLTKPVEISADGLPSPNQLKRKILIKHKKLAEGSAYEEVPTSMMYSENDISNSIKNGILYLEDPVNHEWYPHYFVLTSSKIYYSEETSSDQGNEDEEEPKEVSSSTELHSNEKWFHGKLGAGRDGRHIAERLLTEYCIETGAPDGSFLVRESETFVGDYTLSFWRNGKVQHCRIHSRQDAGTPKFFLTDNLVFDSLYDLITHYQQVPLRCNEFEMRLSEPVPQTNAHESKEWYHASLTRAQAEHMLMRVPRDGAFLVRKRNEPNSYAISFRAEGKIKHCRVQQEGQTVMLGNSEFDSLVDLISYYEKHPLYRKMKLRYPINEEALEKIGTAEPDYGALYEGRNPGFYVEANPMPTFKCAVKALFDYKAQREDELTFIKSAIIQNVEKQEGGWWRGDYGGKKQLWFPSNYVEEMVNPVALEPEREHLDENSPLGDLLRGVLDVPACQIAIRPEGKNNRLFVFSISMASVAHWSLDVAADSQEELQDWVKKIREVAQTADARLTEGKIMERRKKIALELSELVVYCRPVPFDEEKIGTERACYRDMSSFPETKAEKYVNKAKGKKFLQYNRLQLSRIYPKGQRLDSSNYDPLPMWICGSQLVALNFQTPDKPMQMNQALFMTGRHCGYVLQPSTMRDEAFDPFDKSSLRGLEPCAISIEVLGARHLPKNGRGIVCPFVEIEVAGAEYDSTKQKTEFVVDNGLNPVWPAKPFHFQISNPEFAFLRFVVYEEDMFSDQNFLAQATFPVKGLKTGYRAVPLKNNYSEDLELASLLIKIDIFPAKENGDLSPFSGTSLRERGSDASGQLFHGRAREGSFESRYQQPFEDFRISQEHLADHFDSRERRAPRRTRVNGDNRL
modifications: phosphotyrosine at 783 (the antibody listed is Phospho-PLCγ1 (Tyr783))
- binding [1]: binds

B2: RAB25, P57735 1-213 (protein)
chain: MGNGTEEDYNFVFKVVLIGESGVGKTNLLSRFTRNEFSHDSRTTIGVEFSTRTVMLGTAAVKAQIWDTAGLERYRAITSAYYRGAVGALLVFDLTKHQTYAVVERWLKELYDHAEATIVVMLVGNKSDLSQAREVPTEEARMFAENNGLLFLETSALDSTNVELAFETVLKEIFAKVSKQRQNSIRTNAITLGSAQAGQEPGPGEKRACCISL
- binding [2]: binds

B3: RCP (protein, UniProt Q6WKZ4 1-1283)
chain: MSLMVSAGRGLGAVWSPTHVQVTVLQARGLRAKGPGGTSDAYAVIQVGKEKYATSVSERSLGAPVWREEATFELPSLLSSGPAAAATLQLTVLHRALLGLDKFLGRAEVDLRDLHRDQGRRKTQWYKLKSKPGKKDKERGEIEVDIQFMRNNMTASMFDLSMKDKSRNPFGKLKDKIKGKNKDSGSDTASAIIPSTTPSVDSDDESVVKDKKKKSKIKTLLSKSNLQKTPLSQSMSVLPTSKPEKVLLRPGDFQSQWDEDDNEDESSSASDVMSHKRTASTDLKQLNQVNFTLPKKEGLSFLGGLRSKNDVLSRSNVCINGNHVYLEQPEAKGEIKDSSPSSSPSPKGFRKKHLFSSTENLAAGSWKEPAEGGGLSSDRQLSESSTKDSLKSMTLPSYRPAPLVSGDLRENMAPANSEATKEAKESKKPESRRSSLLSLMTGKKDVAKGSEGENPLTVPGREKEGMLMGVKPGEDASGPAEDLVRRSEKDTAAVVSRQGSSLNLFEDVQITEPEAEPESKSEPRPPISSPRAPQTRAVKPRLEVSPEAQPTARLPSPTDSPSSLPPLPSSSGQASVPSELGHGADTQSSESPSVFSSLSSPIAAPISTSTPIESWPLVDRGQAKSEGPPLLPKAELQTESLTPVPNSGSSALGSLFKQPSFPANKGTEDSLMGRTRETGTEKNTSSLELEESLPEQPETGRQEEELPRFPCKKQDYSPSSGEAQEVPFALSLSSDGAVSPVGELAAGGDRDLESQAGSLVESKARDAAEEVAPPLPMGASVPSIDSMMRKLEEMGLNLRKDQKKTKKRVSFSEQLFTEEAVAGAALLVEGHSSCPQELNPAWSVAGNASDGEPPESPHAEDSERESVTTPGPATCGAPASPADHLLLPSQEESFSEVPMSEASSAKDTPLFRMEGEDALVTQYQSKASDHEGLLSDPLSDLQLVSDFKSPIMADLNLSLPSIPEVASDDERIDQVEDDGDQVEDDGETAKSSTLDIGALSLGLVVPCPERGKGPSGEADRLVLGEGLCDFRLQAPQASVTAPSEQTTEFGIHKPHLGKSSSLDKQLPGPSGGEEEKPMGNGSPSPPPGTSLDNPVPSPSPSEIFPVTHSFPSSAHSDTHHTSTAESQKKATAEGSAGRVENFGKRKPLLQAWVSPSETHPVSAQPGAGTGSAKHRLHPVKPMNAMATKVANCSLGTATIISENLNNEVMMKKYSPSDPAFAYAQLTHDELIQLVLKQKETISKKEFQVRELEDYIDNLLVRVMEETPNILRIPTQVGKKAGKM
- binding [3]: binds
